{
  "source": "patent US20190247396A1",
  "about": "“DENTAL TREATMENT” (KING'S COLLEGE LONDON, priority 2016, published 2019)",
  "system": "mouse maxillary first molars",
  "test": "Reactionary dentine formation, non-exposed pulp injury model, Masson's Trichrome histology",
  "settings": "4 weeks after injury without pulp exposure",
  "method": "To investigate the effect of modulation of Wnt signaling on reactionary dentine formation, a reproducible tooth damage model was established. 6 weeks old, Axin2^−CreERT2; Rosa26−mTmG (fl/+) and GPR1777(Wntless)^−pCAGCreERT2 (fl/fl) mice were injected intraperitoneally with three doses of tamoxifen (2 mg per 30 g mouse, SIGMA), one dose a day. 5 days after the last tamoxifen injection, the height of the middle cusp of mouse maxillary first molars were reduced without exposing the dental pulp, leaving a band of dentine to protect the inner pulp tissue (FIG. 5).\nThe exposed dentine was capped either with calcium hydroxide (Dycal; Dentsply) or mineral trioxide aggregate (MTA) (ProRoot MTA; Dentsply), or dry collagen sponge (Kolspon-Fish Collage Type 1; Eucare Ltd), or collagen sponge soaked in dimethyl sulfoxide (DMSO; SIGMA), or 50 nM Tideglusib, or 1 μM LY2157299, or 1 μM Dorsomorphin. All drugs were dissolved and diluted in DMSO. A layer of glass ionomer cement (Ketac-Cem Radiopaque; 3M ESPE) was used as a sealing material. Vetergesic (Buprenorphine—Ceva) was injected to all mice post-operative at the rate of 0.3 mg/kg by intraperitoneal injection as analgesic. The animals were sacrificed after 1 day and 4 weeks. A total of 14 genetically-modified mice (28 damaged molars) and 26 CD1 mice (52 molars) were used. […]",
  "note": "Entries after “also recorded” stand apart in the source; their conditions may differ. For at least one compound, name, drawing or mass did not settle the structure.",
  "data": [
    {"compound": "c1cc(-c2cnn3cc(-c4ccc(OCCN5CCCCC5)cc4)cnc23)ccn1", "note": "[Dorsomorphin]", "values": [
      {"measurement": "Structure of reactionary dentine (histology)", "value": "mixture of tubular dentine and globular dentine; also recorded: tubular reactionary dentine discontinued by globular dentine"}
    ]}
  ]
}
